A: 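Whole-cell assay for inhibitors of Mycobacterium tuberculosis growth, labelled Cornell in the record; the read-out is not stated. The concentration is filed as 10 mM, unlikely as a test dose, so the dose is not known. The record gives no direction; compounds strong in two other growth screens of this library score well above the rest, so higher reads as stronger inhibition. About 53,000 compounds were tested under these conditions; 1.7% (about 900) showed 50% or more at least once.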
B: 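Assay on Mycobacterium tuberculosis, filed only as a heat shock assay from Cornell; the read-out is not stated. The concentration is filed as 10 mM, unlikely as a test dose, so the dose is not known. Direction is inferred from retests: higher values go with stronger inhibition. Size under these conditions: about 69,000 compounds, about 930 of them at 50% or above in at least one test.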

Each number is a percent effect as filed.
The record does not define 0% and 100%; most values in the screen are far below 50% and negative numbers occur (in some assays of this library far below -100).
This is an unselected part of the compounds tested.
A dash means the value is not listed here; it may have been measured.

| # | SMILES | A | B |
|---|---|---|---|
| 1 | `CCc1ncc2c(n1)CN(c1nc(C)ccc1C(=O)O)C2` | 42.89% | 2.553% |
| 2 | `CCN(Cc1cccc(C(=O)Nc2ncc(C)s2)c1)[C@H]1COC[C@@H]1O` | - | -3.539% |
| 3 | `Cc1cc(CN2CCCC2c2noc(C(C)C)n2)on1` (configuration not stated) | -2.763% | -9.44% |
| 4 | `CC1CN(C)c2ccccc2CN1C(=O)c1ccncc1F` (configuration not stated) | -5.5% | -31.23% |
| 5 | `CCOc1ncccc1NC(=O)N1CCOCC1C` (configuration not stated) | -1.621% | 10.46% |
| 6 | `O=C(O)C(F)(F)F.[H][C@]12CCN(C(=O)c3ccc4[nH]ccc4c3)C[C@@]1([H])OCCN(CC)C2` | -71.31% | 4.5% |
| 7 | `COc1ccccc1OC1CCN(c2ccncc2)CC1` | -45.47% | 4.135% |
| 8 | `CCOC(CC)C(=O)NCCC(=O)N1CCN(c2ccccn2)CC1` (configuration not stated) | -8.043% | -1.242% |
| 9 | `O=c1[nH]c(CCN2CCCCC2Cn2cccn2)nc2ccccc12` (configuration not stated) | - | 29.01% |
| 10 | `Cc1nc(C)n(CC2CN(c3nnc(C)c(C)c3C#N)CCO2)n1` (configuration not stated) | - | 3.313% |
| 11 | `CC(C)CCN1CC2(CCCN(C(=O)NCc3cccs3)C2)CCC1=O` (configuration not stated) | 23.4% | -17.61% |
| 12 | `COc1ccc(C)cc1C(C)NCc1cccn1C` (configuration not stated) | 13.73% | 8.626% |
| 13 | `Cc1cccnc1CN1CCN(C(=O)c2cnn(C(C)C)c2)CC1` | -6.84% | -22.31% |
| 14 | `CN(CCN1CCOC1=O)CC(=O)Nc1ccc(Cl)c(Cl)c1` | 29.25% | 9.896% |
| 15 | `Cc1nn(-c2cc(Cl)cc(Cl)c2)c(C)c1CCC(=O)O` | -1.492% | 19.8% |
| 16 | `Cn1ncc2c1C(COCC1CC1)CN(C(=O)c1ccoc1)C2` (configuration not stated) | -15.65% | -12.53% |
| 17 | `Cc1nc(C(=O)NCCS(=O)(=O)N2CCCC2)cs1` | - | -18.85% |
| 18 | `CNC(=O)NC(C)c1c(F)cccc1Cl` (configuration not stated) | 8.3% | 8.024% |
| 19 | `Cc1ccc(C(CNCc2cnn(C(C)C)c2)N2CCOCC2)s1` (configuration not stated) | 30.46% | 1.44% |
| 20 | `COc1ccccc1CC1CCCN(CC(N)=O)C1` (configuration not stated) | - | 0.514% |
| 21 | `CC(Sc1nc(N)cc(N)n1)c1nc(C(C)(C)C)no1` (configuration not stated) | -15.79% | 0.3411% |
| 22 | `Cc1ccc(S(=O)(=O)NCC2COCc3c(C)nnn3C2)cc1F` (configuration not stated) | 3.704% | -5.704% |
| 23 | `Cc1nc2ccccc2nc1CN(C)CC1CCCN1c1cccnn1` (configuration not stated) | - | 18.99% |
| 24 | `CC(C1CC1)N(C(=O)NCCCn1nc2ccccn2c1=O)C1CC1` (configuration not stated) | 2.569% | 7.19% |
| 25 | `CCN(C(C)=O)c1nc(CN2CCCC2Cn2cncn2)cs1` (configuration not stated) | -36.69% | -9.589% |
| 26 | `Cc1cc(C2CCC2)nc(N2CCC3(CCCNC3=O)C2)n1` (configuration not stated) | 23.66% | -11.71% |
| 27 | `CC(=O)N1CCC(Oc2cccc(C#N)c2)CC1` | 17.44% | 5.605% |
| 28 | `CCc1cnc(CNC(=O)NCCc2ccc(O)cc2)s1` | -35.3% | 13.23% |
| 29 | `CCc1noc(-c2cccc(C(=O)O)c2)n1` | -59.03% | -26.29% |
| 30 | `[H][C@@]12CN(C(=O)c3cccn3C)C[C@]1([H])C(=O)N(CC1CC1)C2` | -9.274% | 12.5% |
| 31 | `CCOCC1CN(C(=O)c2cnccn2)Cc2cnn(CC3CC3)c21.O=C(O)C(F)(F)F` (configuration not stated) | 15.88% | -6.901% |
| 32 | `COCC1CC2(CCN(C(=O)c3cccn3C)CC2)CN1C(C)C` (configuration not stated) | 17.39% | -0.8238% |
| 33 | `CC(=O)N1CCC2(CN(CC3CCCC3)C2)C1.O=C(O)C(F)(F)F` | - | -2.742% |
| 34 | `CC(C)NC(=O)NC[C@H]1OC[C@@H](NCc2ccccc2O)[C@@H]1O` | 11.01% | -17.83% |
| 35 | `O=C(c1cnc2[nH]c(=O)[nH]c(=O)c2c1)N1CCCC1C1CCCCC1` (configuration not stated) | - | -6.48% |
| 36 | `CCOC1CCCN(C(=O)c2nn(-c3ccccc3F)cc2O)C1` (configuration not stated) | - | -1.737% |
| 37 | `O=C(O)C(F)(F)F.[H][C@@]12CCCO[C@]1([H])[C@H](N(C)Cc1cncnc1)CN2C(=O)C1CC1` | 10.43% | 8.478% |
| 38 | `Cc1cc(C2CCCN2C(=O)CN2CC3(CCNCC3)OC2=O)on1` (configuration not stated) | - | -1.681% |
| 39 | `Cc1cc(NCc2cc3n(n2)CCCN(S(C)(=O)=O)C3)ncn1` | 6.66% | -3.098% |
| 40 | `CCOCCCNC(=O)C1(C)CCC(=O)N1Cc1ccccc1F` (configuration not stated) | - | 6.406% |
| 41 | `Cc1nnc(Nc2cccc(C3CCN(CCO)CC3)n2)s1` | - | 4.058% |
| 42 | `CCc1cc(NCc2ccccc2CN2CCCC2)n2ncnc2n1` | -6.247% | -25.04% |
| 43 | `COCCNC(=O)Nc1cccc(COCCOC(C)C)c1` | - | -8.467% |
| 44 | `[H][C@@]12C[C@@H](OC)C[C@]1([H])CN(C(=O)c1nn(CCC)cc1Cl)C2` | 4.304% | -4.008% |
| 45 | `Cc1cc(C2CCCN(CCc3ccccn3)C2)n[nH]1` (configuration not stated) | 11.92% | 0.931% |
| 46 | `Cc1ccc(-c2cn3c(n2)CO[C@@H](CNCc2cccnc2)C3)cc1` | -41.17% | -35.17% |
| 47 | `CS(=O)(=O)CCN1CCC(=Cc2ccccc2)CC1` | 18.11% | -30.24% |
| 48 | `CN(C)C[C@H]1C[C@@H](CO)CN(C(=O)CCc2nc(Cl)n[nH]2)C1` | - | -4.76% |
| 49 | `O=C(CNc1cc2c(cc1Cl)OCCO2)NCC(F)(F)F` | 7.067% | -9.558% |
| 50 | `Cc1csc(C2CCCCN2C(=O)c2cc(Cl)c[nH]2)n1` (configuration not stated) | - | -1.762% |
| 51 | `CCC(C(=O)NCC1=CCN(C)CC1)c1ccccc1` (configuration not stated) | -15.73% | -13.73% |
| 52 | `O=C(NCc1ccc(-n2cncn2)nc1)c1ccoc1` | -21.9% | -16.73% |
| 53 | `CC(C)C(=O)N1CCC(CNc2nc(C(C)C)nc3c2cnn3C)CC1` | -0.3023% | 12.93% |
| 54 | `O=C(O)C(F)(F)F.[H][C@@]12OCCN(C(=O)CC3CC3)[C@@]1([H])CC[C@H]2OCCCn1cccn1` | -23.16% | -2.067% |
| 55 | `O=C(CCn1ccnc1)N1CC[C@H](Oc2cccc(F)c2)[C@@H](O)CC1` | -23.28% | -25.61% |
| 56 | `Cc1cc(NCc2nnc3n2CCCCC3)n2nc(C)c(C)c2n1` | -14.05% | 46.92% |
| 57 | `Cc1cnc(CNC(=O)CCCn2cnc3ccccc3c2=O)cn1` | -14.46% | -18.47% |
| 58 | `Cc1ccc(C(C(=O)N2CCC(Cc3noc(C)n3)CC2)N(C)C)cc1` (configuration not stated) | 22.89% | 12.31% |
| 59 | `COc1c(CNCc2ccc(N(C)C)nc2)c(C(C)C)nn1C` | - | -10.21% |
| 60 | `COc1ccc(CCN(C)CCS(=O)(=O)c2ccc(Cl)cc2)cc1OC` | - | -3.981% |
| 61 | `CN(CCCNC(=O)CN1CCS(=O)(=O)CC1)c1ccccc1` | 2.694% | 24.05% |
| 62 | `CCN(Cc1cccc(NC(=O)COCCOC)c1)C(C)=O` | -16.75% | -9.394% |
| 63 | `COC(C)(C)CC(C)NCc1nncn1C1CCCCC1` (configuration not stated) | -13.73% | 2.682% |
| 64 | `O=C(O)C(F)(F)F.O=C(O)C(F)(F)F.[H][C@@]12CN(Cc3cccnc3)C[C@]1([H])[C@H](OC)CCN2S(=O)(=O)N(C)C` | 7.571% | -14.58% |
| 65 | `O=C(CCCc1ccccc1)Nc1cnc(N2CCOCC2)nc1` | 20.49% | 8.539% |
| 66 | `Oc1cc(-c2ccsc2)nc(C2CCN(Cc3cccnc3)CC2)n1` | 18.41% | -12.64% |
| 67 | `COCCCn1ccc(NC(=O)NCCc2cccnc2)n1` | 24.7% | -3.548% |
| 68 | `CC(Cc1c(F)cccc1F)NC(=O)Nc1cnn(CC(N)=O)c1` (configuration not stated) | - | 2.127% |
| 69 | `CCc1cccnc1NCc1cnc(N2CCOCC2)nc1` | 5.468% | -26.98% |
| 70 | `O=C(O)C(F)(F)F.[H][C@@]12OCCN(C(=O)c3cnccn3)[C@@]1([H])CC[C@H]2OCc1cccnc1` | 16.21% | -24.22% |
| 71 | `Cc1nc(CN2CCCCC2CCc2ccc(O)cc2)co1` (configuration not stated) | - | -14.24% |
| 72 | `O=C(c1c(F)cccc1F)N1CCOCC1` | - | -26.74% |
| 73 | `CN(Cc1nnc(C2CC2)n1C)C1CCN(Cc2nccn2C)C1` (configuration not stated) | -8.043% | -1.402% |
| 74 | `Cc1cc(NC(=O)NCc2cccnc2OC(C)C)no1` | - | -20.06% |
| 75 | `CN(C)c1cnn(CC(=O)N2Cc3ccccc3C2)c(=O)c1` | -9.205% | -2.611% |
| 76 | `Cc1cc2nc(CO[C@H]3CN(C4CCN(C)CC4)C[C@H]3F)[nH]c2cc1C` | -25.05% | -7.666% |
| 77 | `O=C(NCc1ccco1)c1cc[n+]([O-])cc1` | -0.2942% | -15.9% |
| 78 | `CCN(C(C)=O)C(c1cccnc1)c1cc(C)cc(C)c1` (configuration not stated) | -6.197% | -31.87% |
| 79 | `CCC(O)CN(CC(=O)NC(=O)NC1CC1)c1ccccc1` (configuration not stated) | -1.942% | 15.48% |
| 80 | `O=C(O)C(F)(F)F.O=C(O)C(F)(F)F.[H][C@@]12CN(Cc3ccsc3)C[C@]1([H])OCCN2c1ncccn1` | 5.511% | -2.094% |
| 81 | `O=C(Cc1csc(-c2ccccn2)n1)NCCCN1CCCCCC1=O` | 9.56% | 3.933% |

The last 4 entries again:

SMILES	A	B
CCN(C(C)=O)C(c1cccnc1)c1cc(C)cc(C)c1 (configuration not stated)	-6.197%	-31.87%
CCC(O)CN(CC(=O)NC(=O)NC1CC1)c1ccccc1 (configuration not stated)	-1.942%	15.48%
O=C(O)C(F)(F)F.O=C(O)C(F)(F)F.[H][C@@]12CN(Cc3ccsc3)C[C@]1([H])OCCN2c1ncccn1	5.511%	-2.094%
O=C(Cc1csc(-c2ccccn2)n1)NCCCN1CCCCCC1=O	9.56%	3.933%

Data taken from ChEMBL document CHEMBL3988442, “University of Dundee, Small-Polar-MMV Screening Library” (2021).